At least one structure is not confirmed: it was looked up by name or label, or the drawing left a doubt.
Test system: renal proximal tubule cells (RPTCs)
Type: cell-based, New Zealand white rabbits
Settings: 30 min preincubation, then 0.1 mg/mL DEDC(NP)s 2 h
Description: To assess uptake of DEDC(NP)s, RPTCs were grown in 35-mm tissue culture dishes as described above. DEDC(NP) dispersions were prepared by diluting nanoparticles into media and vortexed immediately prior to experiments. Cells were preincubated for 30 min with varying concentrations of either media or the drugs chlorpromazine hydrochloride (Sigma-Aldrich), nocodazole (Sigma-Aldrich), or simvastatin (Sigma-Aldrich). After pre-incubation, DEDC(NP)s were added at a final concentration of 0.1 mg/mL and incubated for 2 h at 37° C. Cells were washed in triplicate with media to ensure removal of nanoparticles adhered to the outer cell membrane. Cells were then fixed in 10% neutral buffered formalin and nuclei stained with 4′,6-diamidino-2-phenylindole (DAPI). Cells were imaged using the EVOS M5000 Imaging System (ThermoFisher, Waltham, MA) and fluorescence intensity was analyzed by ImageJ (NIH) (n=5 biological replicates).

CCC(C)(C)C(=O)O[C@H]1C[C@@H](C)C=C2C=C[C@H](C)[C@H](CC[C@@H]3C[C@@H](O)CC(=O)O3)[C@H]21 [simvastatin]
effect of inhibitor pretreatment on DEDC(NP) uptake by RPTCs: concentration dependent decrease in nanoparticle uptake

Reference: US20240189244A1 (priority 2021, published 2024)
